In the test the target is T1, Vpx HIV-2 Gh (HIV-2 (Ghana-1 strain)) (UniProt P18045).
T1 sequence: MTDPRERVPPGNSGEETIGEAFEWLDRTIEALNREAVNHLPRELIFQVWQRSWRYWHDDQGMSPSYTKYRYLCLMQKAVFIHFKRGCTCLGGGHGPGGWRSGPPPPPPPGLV
In words: co-IP; HA-Vpr/Vpx constructs expressed in OMK cells; anti-HA immunoprecipitation; endogenous DCAF1 revealed by Western blot. Background: In western blotting, separated proteins are transferred to a membrane and probed.

Results are given in words; binding and its absence hold for the method and conditions named. In cells and extracts the contact can be indirect. Binding can be weak; no strength is given.

Consider “owl monkey DCAF1 (endogenous in OMK cells)”, for which the binding result is recorded as “binds”.

Source of the values: article PMC12090772.
